# Results of single-concentration screens

Measurements from “University of Dundee, Small-Polar-MMV Screening Library” (2021), ChEMBL document CHEMBL3988442.

The filed quantity is “Percent Effect” (%).
The controls that fix the scale are not given in the record; negative values are as filed.
The compounds are a random part of those screened.
A dash means the value is not listed here; it may have been measured.

A: 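Whole-parasite assay of Trypanosoma brucei over 72 hours; the read-out is not stated. Concentration: 30 µM. Direction is inferred from retests: higher values go with stronger inhibition. Values scatter widely below zero; nearly all retest evidence comes from the higher of the two concentrations used. Of about 64,000 compounds tested this way, about 940 (1.5%) reached 50% or more in at least one test.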
B: 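Assay of Toxoplasma gondii numbers, read through their beta-galactosidase reporter with a colour substrate. Compounds at 10 µM. Higher reads as fewer parasites (inferred from which compounds were picked for retests). Of about 67,000 compounds tested this way, about 260 (0.38%) reached 50% or more in at least one test.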

| # | structure | A | B |
|---|---|---|---|
| 1 | `Cc1cc(-c2ccnn2C)nc(C2CCCN(S(C)(=O)=O)C2)n1` (configuration not stated) | 4.313% | 6.356% |
| 2 | `CCc1nccn1-c1cncc(C2CCCN2CC(=O)N2CCCC2)n1` (configuration not stated) | -42.01% | -8.762% |
| 3 | `O=C(O)C(F)(F)F.O=C(O)C(F)(F)F.[H][C@@]12C[C@@H](Oc3ccccc3)CN1CCN(Cc1nccn1C)C2` | -12.53% | 2.366% |
| 4 | `CCN(CC1CCCO1)C(=O)Nc1ccc(F)cc1OC` (configuration not stated) | 10.92% | - |
| 5 | `COC(=O)c1ccc(S(=O)(=O)N(C)CC(N)=O)c(Cl)c1` | -46.45% | 13.41% |
| 6 | `CC(C)c1ccc(C2(C(=O)NCCS(N)(=O)=O)CCC2)cc1` | -27.46% | -14.2% |
| 7 | `COc1ccc(NC(C)=O)c(N2CCN(C(C)=O)CC2)n1` | 12.35% | -13.64% |
| 8 | `Cc1nc(-c2ccsc2)ccc1C(=O)NC(C)CN1CCOCC1` (configuration not stated) | 12.29% | -36.16% |
| 9 | `O=C(O)C(F)(F)F.O=C(O)C(F)(F)F.[H][C@@]12CN(Cc3ccoc3)CCO[C@]1([H])CN(c1ccc(C)nn1)C2` | -33.65% | -1.494% |
| 10 | `Cc1cnn(C2CCCN(C(=O)c3ccc(-n4cccn4)nc3)C2)c1` (configuration not stated) | -2.436% | 6.589% |
| 11 | `COc1ccccc1C(=O)N1CC(Cc2nccc3ccn(C)c23)C1` | 15.77% | 22.74% |
| 12 | `CCOCC1CN(C(=O)Cc2ccccn2)Cc2cn(CC)nc21` (configuration not stated) | 35.18% | 0.5351% |
| 13 | `CCCC(C)N(C)Cc1nnc(-c2ccco2)o1` (configuration not stated) | -0.4737% | -7.974% |
| 14 | `Cn1cc(C2COC3(CCN(C(=O)c4ccccn4)CC3)C2)cn1.O=C(O)C(F)(F)F` (configuration not stated) | -831.1% | 4.283% |
| 15 | `CS(=O)(=O)CCN1CCSCC1c1ccc(Cl)cc1` (configuration not stated) | -10.62% | 7.29% |
| 16 | `COc1cccc(CCC(=O)Nc2ccn(C)n2)c1OC` | -59.59% | 26.01% |
| 17 | `CCc1nc(CCNC(=O)NC2CC2)sc1C` | 12.88% | -0.4029% |
| 18 | `CCn1cc(NC(=O)CCc2ccc3c(c2)OCCCO3)cn1` | -6.292% | -1.224% |
| 19 | `CCc1nc(CNCC2CCCN2c2cccnn2)no1` (configuration not stated) | - | 8.887% |
| 20 | `COc1ccc(CC(=O)N2CCCC2Cn2cc(C)cn2)cc1OC` (configuration not stated) | - | 9.746% |
| 21 | `CCn1c(N)nc2cc(C(=O)N3Cc4ccccc4C3)cnc21` | -41% | 3.464% |
| 22 | `CSCC[C@@H](CO)NC(=O)c1sc(-c2ccc(Cl)cc2)nc1C` | -6.305% | 17.48% |
| 23 | `CC(=O)NC(CC(=O)Nc1nc(C)c(C)s1)c1ccccc1` (configuration not stated) | -18.33% | -9.18% |
| 24 | `COc1cc2cc(C(=O)O)n(C)c2cc1OC` | 36.95% | -7.173% |
| 25 | `CC(C)CCNc1nnc(C(C)C)s1` | -19.16% | -2.69% |
| 26 | `Cc1cc(C)n(CC2CCCN2C(=O)c2ccnc(N(C)C)c2)n1` (configuration not stated) | - | 8.028% |
| 27 | `Cc1cnc(NCc2ccc(S(=O)(=O)N(C)C(C)C)cc2)nc1C` | -0.1037% | 1.016% |
| 28 | `O=C(c1ccc2nncn2c1)N1CCSC2(CCCCC2)C1` | -47.65% | -5.229% |
| 29 | `[H][C@@]12CCN(C[C@@H]1CN1CCc3ccccc3C1)[C@@H](CNC(=O)COC)C2` | -10.89% | -4.09% |
| 30 | `COc1c(CNCCC(=O)NC2CCCC2)c(C(C)C)nn1C` | 1.542% | 0.3051% |
| 31 | `O=C(NCC1CCS(=O)(=O)C1)N1CCN(c2cnccn2)CC1` (configuration not stated) | -4.765% | -3.223% |
| 32 | `[H][C@]12CC[C@]([H])(CN(C(=O)c3ccc(N(CC)CC)cc3)C1)N(CCOC)C2` | -6.096% | -0.3234% |
| 33 | `CC(C)c1ccc(S(=O)(=O)N2CCCC3(CCCN3S(C)(=O)=O)C2)cc1` (configuration not stated) | -29.94% | 2.748% |
| 34 | `Cc1cccnc1CN1CCCCC1c1ccn2ccnc2n1` (configuration not stated) | -10.92% | 12.04% |
| 35 | `C[S+]([O-])c1ccc(NC(=O)CC2=CCCCC2)cc1` (configuration not stated) | -15.71% | -2.201% |
| 36 | `CN1CCCC(NC(=O)c2ccc(C(=O)c3cc[nH]c3)cc2)C1` (configuration not stated) | -9.416% | -16.78% |
| 37 | `CCc1noc(C)c1C(=O)N1CCCC(n2nc(C)nc2C)C1` (configuration not stated) | - | -10.62% |
| 38 | `CC(=O)Nc1ncc(S(=O)(=O)Nc2ccc(F)cc2F)s1` | -51.79% | -1.674% |
| 39 | `COC(=O)C(CNC(=O)Nc1nncs1)Cc1ccc(F)cc1` (configuration not stated) | -18.24% | 1.124% |
| 40 | `COc1c(C2CCCN2C(=O)c2scnc2C)c(C)nn1C` (configuration not stated) | -18.9% | -15.99% |
| 41 | `COc1cccc(-c2n[nH]cc2C(=O)NC(C)CC(=O)O)c1` (configuration not stated) | -11% | 11.16% |
| 42 | `CC(C)=CCN1CCC(c2nnc(CN3CCN(C)CC3)n2C)CC1` | -19.52% | -1.793% |
| 43 | `COC(=O)c1cccn1C1CCN(C(=O)c2cc(C)ccc2O)CC1` | 15.21% | 0.5294% |
| 44 | `c1csc(-c2nc(CN3CCn4c(nnc4C4CC4)C3)co2)c1` | 5.536% | 6.373% |
| 45 | `COC(=O)N1CCC2(CC1)N=C(CCC(C)C)NC2=O` | -11.73% | 6.642% |
| 46 | `COc1ccc2nnc(CCCC(=O)NCCc3ccccc3)n2n1` | 1.057% | 23.45% |
| 47 | `Cc1ccc(NCc2cncc3c2CCN(C(=O)C2CC=CC2)C3)nn1.Cl` | 24.37% | 2.564% |
| 48 | `CN(Cc1ccc(Cl)s1)C(=O)Nc1ccc(N(C)C)nc1` | -11.21% | -12.79% |
| 49 | `CN(CC(F)(F)F)C(=O)CNC(=O)Cc1ccc(O)cc1Cl` | 7.431% | -10.83% |
| 50 | `O=C(O)C(F)(F)F.O=C(O)C(F)(F)F.[H][C@@]12CCCO[C@]1([H])[C@H](Nc1ccccn1)CN(Cc1scnc1C)C2` | -42.46% | -5.867% |
| 51 | `CC(=O)N1CCN(c2ccc3ccc(C(=O)NC4CCCC4)cn23)CC1` | 11.9% | 7.92% |
| 52 | `COc1nn(C)c2c1CCCN(C(=O)c1ccc[nH]1)C2` | -22.14% | 4.534% |
| 53 | `Clc1ccc(C2(NCc3noc(C4CC4)n3)CCOCC2)cc1` | 0.6566% | -9.765% |
| 54 | `CN(Cc1cc(-c2cccnc2)no1)C(=O)c1cccn1C` | -143.8% | 0.3245% |
| 55 | `CC(C)OCc1ncn2c1CN(Cc1ccc(F)cc1)CCC2.O=C(O)C(F)(F)F` | - | 0.8069% |
| 56 | `Cc1cc(C)c2c(NC(C)c3nncn3C3CCCC3)ncnc2n1` (configuration not stated) | -104.8% | -13.44% |
| 57 | `O=C(C1CCOCC1)N1CCc2ncnc(-c3ccc(F)cc3)c2CC1` | -37.05% | 7.372% |
| 58 | `CCn1nc(C)cc1C(=O)N1CCC(Nc2ccc(C)nn2)CC1` | -34.19% | 9.069% |
| 59 | `Cc1c(-c2n[nH]c3c2CN(CC2CCOC2)CC3)cccc1C(F)(F)F` (configuration not stated) | -11.11% | 6.943% |
| 60 | `Nc1ccnc(N2CCCC(CO)(Cc3cccc(Cl)c3)C2)n1` (configuration not stated) | -19.65% | 16.45% |
| 61 | `CCOCC(=O)N1CCC(c2nccn2C)CC1` | -17.08% | -0.1161% |
| 62 | `CCC1CCC(CNC(=O)c2c[nH]c(=O)c(Cl)c2)CC1` (configuration not stated) | -46.79% | -1.623% |
| 63 | `Cc1ncsc1C(=O)NC1CCN(CCC(=O)Nc2ccccc2)CC1` | -14.5% | 10.3% |
| 64 | `COc1ccc(CNC(=O)N(Cc2ccc(F)cc2F)C2CC2)cn1` | 20.42% | - |
| 65 | `[H][C@@]12CN(Cc3ccccc3SC)C[C@]1(C(=O)O)CN(CC1CC1)C2=O` | 7.035% | 5.831% |
| 66 | `CCCn1ncc(C(=O)N2CCN(C3Cc4ccccc4C3)CC2)c1C` | -98.46% | -1.972% |
| 67 | `O=C(O)C(F)(F)F.[H][C@]12CCC(=O)N(c3cccnc3)[C@@]1([H])CCN2C(=O)c1occc1C` | -24.92% | -6.78% |
| 68 | `[H][C@@]12CCN(Cc3ccncc3)C[C@@]1([H])O[C@@H](c1nc(C3CC3)cs1)C2` | -17.1% | -3.677% |
| 69 | `O=C(O)C(F)(F)F.c1nc2c(c(C3CC3)n1)CCN(CC1CCOC1)CC2` (configuration not stated) | - | 4.465% |
| 70 | `CSc1ccc(CN(C(=O)c2cc[nH]n2)C2CC2)cc1` | 22.97% | 7.893% |
| 71 | `O=C(NCC(=O)N1CCCCC1)c1ccoc1` | -3.271% | -28.14% |
| 72 | `Cc1nc(C)c(C(=O)OCCNc2ncccc2C#N)s1` | 3.548% | -4.116% |
| 73 | `Cn1cc(NC(=O)c2cc[nH]n2)cc(Cl)c1=O` | 5.704% | -4.309% |
| 74 | `O=C(O)c1ccc(-c2cscn2)cc1` | -26.6% | 9.247% |
| 75 | `CC(C)(Oc1ccc(F)cc1)C(=O)NCc1ccco1` | -53.36% | 4.207% |
| 76 | `COCC1CN(CC2CCOCC2)Cc2cn(CC3CCCC3)nc21` (configuration not stated) | -13.53% | 8.931% |
| 77 | `CC(COc1ccc(F)cc1F)NC(=O)NCCN1CCOCC1` (configuration not stated) | 19.15% | 6.285% |
| 78 | `O=C(O)C(F)(F)F.c1ccc(CN2CCOC3(COCCN(c4ncccn4)C3)C2)nc1` (configuration not stated) | - | -21.07% |
| 79 | `CCc1c(C)nc2ccccc2c1N1CCC(C(=O)NC)CC1` | 4.656% | 10.65% |
| 80 | `COCCN(C)C(=O)Nc1ccc2c(ccn2CC(=O)N(C)C)c1` | 0.592% | 7.295% |
| 81 | `c1cncc(-c2noc(CN3CCCC(Cn4cncn4)C3)n2)c1` (configuration not stated) | - | 22.45% |